{"sequences": {"note": "By UniProt entry, the sequences of proteins in these tests, tags left out. Residues count along the entry.", "UniProt P38646, 47-679": "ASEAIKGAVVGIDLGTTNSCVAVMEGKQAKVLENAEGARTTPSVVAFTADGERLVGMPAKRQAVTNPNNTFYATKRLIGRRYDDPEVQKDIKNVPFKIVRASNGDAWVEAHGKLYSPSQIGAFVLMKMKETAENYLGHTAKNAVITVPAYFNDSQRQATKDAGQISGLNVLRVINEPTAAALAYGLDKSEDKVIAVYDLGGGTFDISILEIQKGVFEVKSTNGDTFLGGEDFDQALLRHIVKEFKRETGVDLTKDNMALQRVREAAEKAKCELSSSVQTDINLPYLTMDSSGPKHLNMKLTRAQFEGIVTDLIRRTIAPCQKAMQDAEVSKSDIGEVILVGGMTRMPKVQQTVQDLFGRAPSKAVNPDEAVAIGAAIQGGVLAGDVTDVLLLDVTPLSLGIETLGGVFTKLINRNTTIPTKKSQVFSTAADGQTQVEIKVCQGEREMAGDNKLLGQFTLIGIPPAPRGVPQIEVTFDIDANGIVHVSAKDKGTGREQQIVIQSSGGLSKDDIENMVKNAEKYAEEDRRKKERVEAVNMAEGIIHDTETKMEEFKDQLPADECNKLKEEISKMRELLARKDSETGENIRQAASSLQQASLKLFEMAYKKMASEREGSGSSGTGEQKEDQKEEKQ", "UniProt P07766, 23-126": "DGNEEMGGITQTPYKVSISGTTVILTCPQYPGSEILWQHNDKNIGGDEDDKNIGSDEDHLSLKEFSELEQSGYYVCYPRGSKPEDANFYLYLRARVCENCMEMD", "UniProt P08670, 2-466": "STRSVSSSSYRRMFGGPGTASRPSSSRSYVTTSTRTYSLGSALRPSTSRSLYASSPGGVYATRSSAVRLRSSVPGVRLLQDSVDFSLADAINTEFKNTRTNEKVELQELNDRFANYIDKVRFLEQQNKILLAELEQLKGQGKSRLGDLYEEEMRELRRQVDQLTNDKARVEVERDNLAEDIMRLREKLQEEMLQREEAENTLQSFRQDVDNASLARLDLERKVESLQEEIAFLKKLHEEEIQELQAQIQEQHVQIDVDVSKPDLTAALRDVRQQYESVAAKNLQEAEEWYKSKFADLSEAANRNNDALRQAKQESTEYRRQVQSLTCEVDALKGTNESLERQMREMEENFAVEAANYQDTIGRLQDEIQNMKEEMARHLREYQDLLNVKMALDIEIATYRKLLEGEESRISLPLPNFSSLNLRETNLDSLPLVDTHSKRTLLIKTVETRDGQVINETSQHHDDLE"}, "source": "patent US11219635", "key": {"[1]": {"biological_target": "mHSP70 (mortalin), PANC-1 cell surface (Homo sapiens) (UniProt P38646)", "test": "activity in cells", "details": "2'-F C and U; 2'-OMe A and G in sticky ends; C3 spacers (7 in tP19 strand, 5 in CCR5 strand); up to 80% PANC-1 lysis with CD8 T cells, E:T 20:1, 500 nM, 8 h; protein on the cell surface"}, "[2]": {"biological_target": "CD3 epsilon (recombinant) (Homo sapiens) (UniProt P07766)", "test": "SELEX", "details": "2'-F C and U; 5 rounds against His-tagged hCD3e, 5 mM MgCl2; purified recombinant protein; protein details: His tag, Creative Biomart; label: Cy3"}, "[3]": {"biological_target": "Vimentin (plasma membrane, PANC-1 cells) (Homo sapiens) (UniProt P08670)", "test": "competition with a labelled probe", "details": "2'-F C and U; 1 uM anti-vimentin antibody significantly reduced P15 (200 nM) binding to cells, P<0.05; protein on the cell surface; label: Cy3 or 3'-biotin"}, "[4]": {"biological_target": "Vimentin (PANC-1 membrane extract) (Homo sapiens) (UniProt P08670)", "test": "pull-down", "details": "2'-F C and U; biotinylated aptamer on streptavidin beads, band identified as vimentin by LC-MS/MS; protein in an extract; label: Cy3 or 3'-biotin"}, "[5]": {"biological_target": "CD3 epsilon (EGFP fusion, stable HEK293) (Homo sapiens) (UniProt P07766)", "test": "binding assay", "details": "2'-F C and U; live-cell confocal; 30 mM Tris-HCl pH 7.5, 150 mM NaCl, 5 mM MgCl2; protein on the cell surface; protein details: EGFP fusion, full-length; label: Cy3"}, "[6]": {"biological_target": "CD3 epsilon (primary human T cells) (Homo sapiens) (UniProt P07766)", "test": "flow cytometry", "details": "2'-F C and U; 500 nM aptamer on fresh human T cells, on ice; histogram shift; protein on the cell surface; label: Cy3"}}, "note": "For some of these results: Where cells or extracts were used, other partners may take part. For some of these results: Construct, isoform or probe ends are uncertain for at least one entry.", "data": [{"sequence": "CUCAAUGGCGAAUGCCCGCCUAAUAGGGAGUUUUUUACAUUUUG / GGGAGGACGAUGCGGGCCUUCGUUUGUUUCGUCCACAGACGACUCGCCCGACAAAAUGUAAAAAACU [tP19-CCR5 bi-specific aptamer]", "values": [{"measurement": "functional effect of the aptamer (% specific lysis)", "setting": "[1]", "result": 80}]}, {"sequence": "GGAGACAAGAAUAAACGCUCAAAUAGAAGCAGCAUCUUCCAAAUCAGUUUGUGUGUCCUCUAUUCGACAGGAGGCUCACAACAGGC [C3e2]", "values": [{"measurement": "selection result", "setting": "[2]", "result": "selected"}]}, {"sequence": "GGGAGACAAGAAUAAACGCUCAAAGUUGCGGCCCAACCGUUUAAUUCAGAAUAGUGUGAUGCCUUCGACAGGAGGCUCACAACAGGC [P15]", "values": [{"measurement": "binding result", "setting": "[3]", "result": "binds"}, {"measurement": "binding result", "setting": "[4]", "result": "binds"}]}, {"sequence": "GGGAGACAAGAAUAAACGCUCAAAUGCCUGUAGUUCGUAGCGAUUUAACUGCGUCAGUGAGGCUUCGACAGGAGGCUCACAACAGGC [C3e3]", "values": [{"measurement": "selection result", "setting": "[2]", "result": "selected"}, {"measurement": "binding result", "setting": "[5]", "result": "binds"}, {"measurement": "binding result", "setting": "[6]", "result": "binds"}]}]}
